{"source": "paper PMC6937711", "key": {"[1]": {"molecular_target": "GmWRKY40 (Glycine max) (UniProt I1KTB9)", "experiment": "two-hybrid; pairwise confirmation: BD fusions of GmWRKY40 or its domain mutants (pGBKT7) with AD fusions of JAZ1-JAZ8 (pGADT7); synthetic dropout medium with X-alpha-gal lacking leucine, tryptophan, histidine and adenine; blue colonies positive; dilutions 0.8, 0.08, 0.008"}, "[2]": {"molecular_target": "GmWRKY40 (Glycine max) (UniProt I1KTB9)", "experiment": "two-hybrid; yeast two-hybrid screening for GmWRKY40-interacting partners, GmWRKY40 as bait; synthetic dropout medium with X-alpha-gal lacking leucine, tryptophan, histidine and adenine"}, "[3]": {"molecular_target": "GmWRKY40 zinc-finger domain mutant (Glycine max)", "experiment": "two-hybrid; pairwise confirmation: BD fusions of GmWRKY40 or its domain mutants (pGBKT7) with AD fusions of JAZ1-JAZ8 (pGADT7); synthetic dropout medium with X-alpha-gal lacking leucine, tryptophan, histidine and adenine; blue colonies positive; dilutions 0.8, 0.08, 0.008"}, "[4]": {"molecular_target": "GmWRKY40 WRKY domain mutant (Glycine max)", "experiment": "two-hybrid; pairwise confirmation: BD fusions of GmWRKY40 or its domain mutants (pGBKT7) with AD fusions of JAZ1-JAZ8 (pGADT7); synthetic dropout medium with X-alpha-gal lacking leucine, tryptophan, histidine and adenine; blue colonies positive; dilutions 0.8, 0.08, 0.008"}, "[5]": {"molecular_target": "GmWRKY40 (Glycine max) (UniProt I1KTB9)", "experiment": "two-hybrid; pairwise confirmation: BD fusions of GmWRKY40 or its domain mutants (pGBKT7) with AD fusions of JAZ1-JAZ8 (pGADT7); synthetic dropout medium with X-alpha-gal lacking leucine, tryptophan, histidine and adenine; blue colonies positive; dilutions 0.8, 0.08, 0.008", "remark": "listed apart in the source"}}, "note": "No constants are given. Whether binding was seen depends on the method and setting. For part of these data: Binding can be weak; no strength is given."}
{"molecule": "JAZ4 (Glyma.13G112000.1) (from UniProt I1LY77)", "values": [{"measurement": "binding", "setting": "[1]", "value": "binds"}]}
{"molecule": "JAZ5 (Glyma.16G010000.1) (from UniProt C6TNM1)", "values": [{"measurement": "binding", "setting": "[1]", "value": "binds"}]}
{"molecule": "JAZ1 (Glyma.07G041400.1), clone found in the yeast two-hybrid screening (protein, UniProt C6TCZ5 1-232) MSSFPNTVAEGRRSGKAPEKSTFSQTCSLLSQFLKEKRASADSTLGIGGKMEPKANTKALLGSLQNSDGALKLSASAMEFLPQLVENPCIKKSRSPGPESPQLTIFYAGKMLVFDAFPPEKATEVMEMATKLASNNSGTEESPPSLPVTTEKLAVSKMPQTNTSSETPKPGNQGVGSDMRYPRRASLLKFLEKRKERVNARGPYQMNNLKPEGSSSGGEPEDQCSKQFDLNF", "values": [{"measurement": "binding", "setting": "[2]", "value": "binds"}]}
{"molecule": "JAZ1 (Glyma.07G041400.1) (protein, UniProt C6TCZ5 1-232) MSSFPNTVAEGRRSGKAPEKSTFSQTCSLLSQFLKEKRASADSTLGIGGKMEPKANTKALLGSLQNSDGALKLSASAMEFLPQLVENPCIKKSRSPGPESPQLTIFYAGKMLVFDAFPPEKATEVMEMATKLASNNSGTEESPPSLPVTTEKLAVSKMPQTNTSSETPKPGNQGVGSDMRYPRRASLLKFLEKRKERVNARGPYQMNNLKPEGSSSGGEPEDQCSKQFDLNF", "values": [{"measurement": "binding", "setting": "[3]", "value": "no binding"}, {"measurement": "binding", "setting": "[4]", "value": "no binding"}, {"measurement": "binding", "setting": "[5]", "value": "binds"}]}
